Source: the supplement of paper PMC6331611
± gives the standard deviation of the averaged measurements. Whole data set: some 1,600 compounds, median “normalized intracellular growth (luminescence, IQM-normalized) in RAW264.7 macrophages” near 1, cut for the lowest 2% near 0.43. The list shows a part of the results.

Tested on: Salmonella enterica serovar Typhimurium SL1344
Assay: normalized intracellular growth (luminescence, IQM-normalized) in RAW264.7 macrophages (fraction of plate interquartile mean); higher = more bacterial growth (less inhibition)
Conditions: 10 µM

Row | SMILES | normalized intracellular growth (time point: T3 (3 h)) | normalized intracellular growth (time point: Tfinal (~6 h))
1 | COc1ccccc1N1CCN(CC(O)COc2cccc3ccccc23)CC1 (stereo not drawn) | 0.964 ± 0.054 | 1.13 ± 0.11
2 | CN1CCC(=C2c3ccccc3CC(=O)c3sccc32)CC1 | 0.953 ± 0.017 | 1.04 ± 0.054
3 | CCN1C(=O)NC(c2ccccc2)C1=O (stereo not drawn) | 0.967 ± 0.024 | 0.77 ± 0.046
4 | CCCN(CCC)C(=O)C(CCC(=O)O)NC(=O)c1ccccc1 (stereo not drawn) | 0.972 ± 0.085 | 1.04 ± 0.2
5 | N#CC(c1ccc(Cl)cc1)c1c(Cl)cc(-n2ncc(=O)[nH]c2=O)cc1Cl (stereo not drawn) | 1.04 ± 0.035 | 0.865 ± 0.1
6 | COc1cc(OC)c(C(=O)CCCN2CCCC2)c(OC)c1 | 1.11 ± 0.12 | 0.941 ± 0.15
7 | CCC(=O)OCC(=O)[C@@]1(OC(=O)CC)[C@H](C)CC2C3C([C@@H](O)C[C@@]21C)[C@@]1(C)C=CC(=O)C=C1C[C@H]3Cl (stereo partly drawn) | 1 ± 0.06 | 1.15 ± 0.12
8 | CC(C)(S)[C@@H](N)C(=O)O | 0.991 ± 0.041 | 0.975 ± 0.076
9 | O=C(O)C1CSCN1 (stereo not drawn) | 0.997 ± 0.017 | 1.07 ± 0.084
10 | CCCCCCCCCCC[C@@H](C[C@@H]1OC(=O)[C@H]1CCCCCC)OC(=O)[C@H](CC(C)C)NC=O | 0.987 ± 0.091 | 1.21 ± 0.048
11 | O=C1O[C@H](CO)[C@@H](O)[C@H](O)[C@H]1O | 1.06 ± 0.059 | 1.06 ± 0.06
12 | CC(=O)NO | 0.913 ± 0.073 | 1.01 ± 0.016
13 | CC(=O)N[C@@H](CCC(N)=O)C(=O)O | 0.959 ± 0.023 | 0.942 ± 0.11
14 | CN1CCCN=C1COC(=O)C(O)(c1ccccc1)C1CCCCC1 (stereo not drawn) | 1.07 ± 0.042 | 1.06 ± 0.075
15 | CC(C)(Oc1ccc(Cl)cc1)C(=O)O | 1.04 ± 0.021 | 0.995 ± 0.068
16 | C[C@]12CC[C@@H]3c4ccc(OS(=O)(=O)O)cc4CC[C@H]3[C@@H]1CCC2=O | 0.949 ± 0.03 | 0.95 ± 0.093
17 | COc1cccc(OC)c1C(=O)N[C@@H]1C(=O)N2[C@@H]1SC(C)(C)[C@@H]2C(=O)O | 0.957 ± 0.027 | 0.935 ± 0.093
18 | Cc1ccc(S(=O)(=O)NC(=O)NN2CCCCCC2)cc1 | 1.04 ± 0.025 | 1.018 ± 0.0042
19 | CC(C)(C)CC(C)(C)c1ccc(O)c(Cc2ccc(Cl)cc2Cl)c1 | 0.941 ± 0.069 | 0.835 ± 0.21
20 | CCN(CC)CCOC(=O)C(c1ccccc1)c1ccccc1 | 0.98 ± 0.052 | 1.03 ± 0.011
21 | Nc1nc(NC2CC2)c2ncn([C@H]3C=C[C@@H](CO)C3)c2n1 | 0.9936 ± 0.0059 | 0.935 ± 0.024
22 | O=C(COc1ccc(Cl)cc1)N1CCN(Cc2ccc3c(c2)OCO3)CC1 | 1.11 ± 0.036 | 1.01 ± 0.042

Row | SMILES | normalized intracellular growth (time point: T3 (3 h)) | normalized intracellular growth (time point: Tfinal (~6 h))
23 | N[C@@H](Cc1ccc(O)cc1)C(=O)O | 0.934 ± 0.037 | 0.846 ± 0.31
24 | CCOc1ccc2nc3cc(N)ccc3c(N)c2c1 | 0.985 ± 0.058 | 0.873 ± 0.26
25 | CCN(CC)CCNc1ccc(CO)c2sc3ccccc3c(=O)c12 | 1.06 ± 0.065 | 0.825 ± 0.043
26 | CN(C)c1ccc(O)c2c1C[C@H]1C[C@H]3[C@H](N(C)C)C(O)=C(C(N)=O)C(=O)[C@@]3(O)C(O)=C1C2=O | 1.01 ± 0.091 | 0.33 ± 0.14
27 | Cc1ccsc1/C=C/C1=NCCCN1C | 1 ± 0.065 | 0.923 ± 0.16
28 | CCCCCCCCCCCCCCCCOP(=O)([O-])OCC[N+](C)(C)C | 0.979 ± 0.025 | 1.05 ± 0.19
29 | CN(C)[C@@H]1C(O)=C(C(N)=O)C(=O)[C@@]2(O)C(O)=C3C(=O)c4c(O)cccc4[C@@](C)(O)[C@H]3[C@H](O)[C@@H]12 | 1.01 ± 0.074 | 0.0331 ± 0.014
30 | CSc1ccc2c(c1)N(CCC1CCCCN1C)c1ccccc1S2 (stereo not drawn) | 1.05 ± 0.12 | 1.24 ± 0.08
31 | CC/C(=C(/CC)c1ccc(O)cc1)c1ccc(O)cc1 | 0.983 ± 0.022 | 1.11 ± 0.04
32 | CC1=C(/C=C/C(C)=C/C=C/C(C)=C\C(=O)O)C(C)(C)CCC1 | 0.851 ± 0.031 | 0.977 ± 0.048
33 | Cl.N=C(N)NCCC[C@H](N)C(=O)O | 1.05 ± 0.065 | 1.02 ± 0.092
34 | NC(N)=Nc1nc(CSCC/C(N)=N/S(N)(=O)=O)cs1 | 1.03 ± 0.1 | 0.877 ± 0.12
35 | Cc1cc(-c2ccccc2)nnc1NCCN1CCOCC1 | 1.02 ± 0.029 | 0.986 ± 0.19
36 | CCCCC1(COC(=O)CCC(=O)O)C(=O)N(c2ccccc2)N(c2ccccc2)C1=O | 1.08 ± 0.039 | 1.01 ± 0.075
37 | COc1cc(NC(C)CCCN)c2ncccc2c1 (stereo not drawn) | 0.827 ± 0.19 | 0.849 ± 0.13
38 | CC(C)(C)c1ccc(C(O)CCCN2CCC(C(O)(c3ccccc3)c3ccccc3)CC2)cc1 (stereo not drawn) | 0.831 ± 0.034 | 0.752 ± 0.2
39 | CC(COc1ccccc1)NC(C)C(O)c1ccc(O)cc1 (stereo not drawn) | 1.028 ± 0.0075 | 1.03 ± 0.024
40 | CCCCN1CCCCC1C(=O)Nc1c(C)cccc1C (stereo not drawn) | 1.05 ± 0.043 | 0.561 ± 0.22
41 | CO/N=C1\C[C@]2(C[C@@H]3C[C@@H](C/C=C(\C)C[C@@H](C)/C=C/C=C4\CO[C@@H]5[C@H](O)C(C)=C[C@@H](C(=O)O3)[C@]45O)O2)O[C@H](/C(C)=C/C(C)C)[C@H]1C | 0.979 ± 0.022 | 0.831 ± 0.033
42 | CCOC(=O)NNc1nncc2ccccc12 | 1.21 ± 0.052 | 1.33 ± 0.14
43 | CCN(CCO)CCCC(C)Nc1ccnc2cc(Cl)ccc12 (stereo not drawn) | 1.12 ± 0.049 | 0.989 ± 0.048
44 | Cc1nc(Nc2ncc(C(=O)Nc3c(C)cccc3Cl)s2)cc(N2CCN(CCO)CC2)n1 | 0.963 ± 0.061 | 1.04 ± 0.13

3 entries from above, arranged by count of non-hydrogen atoms, ascending.
Row | SMILES | normalized intracellular growth (time point: T3 (3 h)) | normalized intracellular growth (time point: Tfinal (~6 h))
27 | Cc1ccsc1/C=C/C1=NCCCN1C | 1 ± 0.065 | 0.923 ± 0.16
40 | CCCCN1CCCCC1C(=O)Nc1c(C)cccc1C (stereo not drawn) | 1.05 ± 0.043 | 0.561 ± 0.22
39 | CC(COc1ccccc1)NC(C)C(O)c1ccc(O)cc1 (stereo not drawn) | 1.028 ± 0.0075 | 1.03 ± 0.024
